For this assay, the target named is Recombinant human IL-23R/Fc (human) (UniProt Q5VWK5). The assay is described as follows: SPR (BIAcore), IL-23R/Fc amine-coupled, IL-23 injected without antibody.

Protein sequences, listed by entry. Tags and fused reporters are not part of them. Lines headed by an entry give the natural chain unless they say otherwise; changes in a name come on top. Residues count along the entry.
UniProt Q5VWK5, residues 24-353: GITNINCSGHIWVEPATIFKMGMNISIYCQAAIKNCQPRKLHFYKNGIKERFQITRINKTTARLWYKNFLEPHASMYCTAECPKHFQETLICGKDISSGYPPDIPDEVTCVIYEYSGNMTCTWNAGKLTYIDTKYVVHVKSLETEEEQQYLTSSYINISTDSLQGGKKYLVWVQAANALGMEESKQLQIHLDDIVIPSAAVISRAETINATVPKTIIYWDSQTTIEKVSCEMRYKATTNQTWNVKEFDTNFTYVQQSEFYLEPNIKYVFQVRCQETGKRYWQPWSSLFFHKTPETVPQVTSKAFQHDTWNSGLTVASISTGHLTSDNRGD
UniProt P29460: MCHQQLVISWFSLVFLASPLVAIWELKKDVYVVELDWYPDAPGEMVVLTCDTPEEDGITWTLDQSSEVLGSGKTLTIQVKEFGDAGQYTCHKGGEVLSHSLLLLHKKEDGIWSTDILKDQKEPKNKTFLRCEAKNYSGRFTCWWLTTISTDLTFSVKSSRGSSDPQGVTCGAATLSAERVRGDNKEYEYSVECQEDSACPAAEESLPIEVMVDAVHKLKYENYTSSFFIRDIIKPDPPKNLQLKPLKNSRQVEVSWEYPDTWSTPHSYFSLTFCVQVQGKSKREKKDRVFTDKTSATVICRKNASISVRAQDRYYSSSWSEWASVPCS

No constants are given. Whether binding was seen depends on the method and setting. Some results given as binding are weak or reduced against the parent protein; the word gives no strength.

In the case of “human IL-23 (from UniProt P29460 23-328) (ligand)”, the binding result is recorded as “binds”.

The record behind these values is US20170275356A1.
